Test results reported in patent publication US9060515B2, “Heterocyclic urea compounds” (BIOTA EUROPE LTD, priority 2011, dated 2015).
Some entries share one result that the patent states for a list of compounds.

Amino acid sequences for entries named in this document (tags omitted). A change or cut given only in a name is not applied to a line headed by its entry.
UniProt P0A0K8: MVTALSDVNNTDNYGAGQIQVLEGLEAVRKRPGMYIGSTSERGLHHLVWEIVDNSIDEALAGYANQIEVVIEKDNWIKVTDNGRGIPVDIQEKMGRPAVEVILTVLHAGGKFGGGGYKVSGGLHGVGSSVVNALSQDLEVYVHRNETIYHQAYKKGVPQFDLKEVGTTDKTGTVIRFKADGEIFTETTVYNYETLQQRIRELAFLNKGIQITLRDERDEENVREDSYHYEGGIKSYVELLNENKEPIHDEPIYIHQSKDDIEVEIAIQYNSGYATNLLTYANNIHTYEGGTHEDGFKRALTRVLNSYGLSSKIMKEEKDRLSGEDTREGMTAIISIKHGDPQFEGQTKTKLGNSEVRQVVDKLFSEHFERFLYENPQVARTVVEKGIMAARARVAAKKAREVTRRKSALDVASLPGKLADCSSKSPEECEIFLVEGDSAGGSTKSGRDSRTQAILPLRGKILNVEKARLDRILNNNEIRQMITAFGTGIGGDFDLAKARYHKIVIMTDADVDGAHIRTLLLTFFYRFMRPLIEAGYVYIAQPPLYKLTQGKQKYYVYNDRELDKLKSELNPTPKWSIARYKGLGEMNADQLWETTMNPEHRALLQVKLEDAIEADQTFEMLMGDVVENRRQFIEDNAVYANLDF

Molecular target: Gyrase enzyme (A2B2 complex from Staphylococcus aureus) (UniProt P0A0K8)
Assay: Gyrase ATPase assay (malachite green), S. aureus enzyme
Type: biochemical
Conditions: on-target enzyme assay; enzyme source (S. aureus or E. coli) not stated for these values

Structure (SMILES) | IC50
CCNC(=O)Nc1ccc(C(=O)N(C)c2cccc(C)c2)c(Nc2ccccc2)c1 [Compound A, 4-(3-Ethylureido)-N-methyl-2-(phenylamino)-N-m-tolylbenzamide] | ≥ 497 µM
CCNC(=O)Nc1ccc(C(=O)Nc2cccc(Cl)c2)c(Nc2ccccc2)c1 [Compound B, N-(3-Chlorophenyl)-4-(3-ethylureido)-2-(phenylamino)benzamide] | ≥ 489 µM
CCNC(=O)Nc1ccc(C(=O)Nc2ccccc2)c(Nc2ccccc2)c1 [Compound C, 4-(3-Ethylureido)-N-phenyl-2-(phenylamino)benzamide] | ≥ 534 µM
CCNC(=O)Nc1ccc(C(=O)Nc2cccnc2)c(Nc2ccccc2)c1 [Compound D, 4-(3-Ethylureido)-2-(phenylamino)-N-(pyridin-3-yl)benzamide] | ≥ 533 µM
